# Library screening results

The values are deposited in ChEMBL (CHEMBL3988442, “University of Dundee, Small-Polar-MMV Screening Library” (2021)).

Results are given as percent effect.
The controls that fix the scale are not given in the record; negative values are as filed.
This is an unselected part of the compounds tested.
Two or more numbers in one place are separate tests of the same structure; such repeats can differ widely.

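Viability assay of Plasmodium falciparum sporozoites; the read-out is not stated. The concentration is filed as 10 mM, unlikely as a test dose, so the dose is not known. Direction is inferred from retests: higher values go with lower viability. Strong results were mostly tested again. About 34,000 compounds were tested under these conditions; 0.84% (about 280) showed 50% or more at least once.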

| structure | Percent Effect |
|---|---|
| `CCN1CC(=O)c2sc(NC(C)C)nc2C1` | 8.721 |
| `CC(C)Cc1cc(CC2(NCc3ccco3)COC2)no1` | -9.212 and -5.234 |
| `COC(=O)c1ccc(C(=O)NCc2nn(C)c3c2COCC3)cc1` | -1.701 |
| `CC(=O)N1CCC(c2nccnc2-c2ccc(F)c(F)c2)CC1` | 8.113 |
| `CCC(C)(C)NC(=O)Cn1nc(C)nc1-c1cccc(C)c1` | 5.56 |
| `COc1cccc2c1OCC(C(=O)N1CCC(NS(C)(=O)=O)CC1)C2` (stereo not given) | 8.333 |
| `CCn1ccnc1CN(C)CC1CCCN1c1cccnn1` (stereo not given) | -11.27 |
| `COc1ccc2c(c1)NC(=O)C2OC(=O)CC(C)(C)C` (stereo not given) | -9.778 |
| `COc1cccc(CN2CCC(c3cc(O)nc(C)n3)C2)c1.O=C(O)CC(O)(CC(=O)O)C(=O)O` (stereo not given) | -1.303 |
| `CN1CCCN(c2nccc(-c3c[nH]nc3C3CCCCC3)n2)CC1` | -4.412 |
| `Cc1cc(-c2cc(N)c(=O)n(CC(=O)N3CCCC(C)C3)n2)c(C)o1` (stereo not given) | 12.35 |
| `Cc1ccccc1OCCCC(=O)NCC1CN(C)CCO1` (stereo not given) | 6.067 and -2.638 and -0.6996 |
| `O=C(O)C(F)(F)F.[H][C@@]12CCN(C(=O)Cc3cccs3)[C@@]1([H])CC(=O)N2Cc1ccncc1` | -0.7881 |
| `O=C(Nc1cccnc1)C1Cc2nc(-c3ccsc3)sc2N1CC1CC1.O=C(O)C(F)(F)F` (stereo not given) | 89.12 and 90.39 and 85.39 |
| `COCCNC(=O)c1cc2c(c3ccccc3n2C)n1C(=O)N(C)C` | -1.546 |
| `Cc1nnc(N2CCOC(C)(C(=O)N(C)C)C2)c2ccccc12` (stereo not given) | -2.606 |
| `O=C(c1cnco1)N1CCC(Cc2ccc3ncccc3c2)CC1` | -1.33 |
| `CN(C)c1nc2c(c(N(C)Cc3n[nH]c4c3CCCC4)n1)CCNCC2` | -6.923 |
| `Cc1ccc(CN2CCn3c(COc4cccnc4)cnc3C2C)o1.O=C(O)C(F)(F)F.O=C(O)C(F)(F)F` (stereo not given) | -3.038 |
| `COCc1c(C(=O)O)nnn1Cc1cccc(C(F)(F)F)c1` | 7.675 |
| `Cc1cscc1C(=O)Nc1cncnc1N(C)C` | 2.525 |
| `CC(C)(C)c1nnc(CN2CCCC2Cn2cncn2)o1` (stereo not given) | 9.215 |
| `Cc1cnn(CCNCc2nnc(Cc3ccccc3)o2)c1` | 2.849 |
| `Cc1cc(C)n(-c2ccc(CNCc3cccc(C#N)c3)cn2)n1` | -0.3641 |
| `O=C(O)C(F)(F)F.O=C(O)C(F)(F)F.[H][C@@]12CCCO[C@]1([H])[C@H](Nc1ccc(C)nn1)CN(Cc1cc(C)on1)C2` | 17.46 |
| `O=C(NCCCn1cccn1)c1csc2c1CCCC2` | -8.99 |
| `Cc1csc(CN2CCn3c(COc4cccnc4)cnc3C2C)n1.O=C(O)C(F)(F)F.O=C(O)C(F)(F)F` (stereo not given) | -7.089 |
| `Cc1csc2ncc(-c3ccnc(NC4CCOCC4)n3)c(=O)n12` | -4.996 |
| `O=C(c1cccnc1-n1cncn1)N1CCN(CC2CC2)CC1` | -24.35 |
| `O=C1COC2(CCN(Cc3ccco3)CC2)CN1Cc1cccnc1` | -7.22 |
| `Cc1nc(C)n(CC2CCCN(CC(=O)Nc3nnc(C)s3)C2)n1` (stereo not given) | -1.175 |
| `O=C(O)C(F)(F)F.O=C(c1cccnc1)N1CCC2(CC1)CC(Oc1ccccc1)CO2` (stereo not given) | 0.3713 |
| `NC(=O)Nc1cccc(Oc2ccccn2)c1` | -4.848 |
| `COCCCOc1ccc(C(=O)N(C)CCC(C)C)cn1` | -14.71 |
| `N#CCCNC(=O)CSc1cc(F)ccc1F` | -3.418 |
| `O=C(O)C(F)(F)F.[H][C@@]12CCCO[C@]1([H])[C@H](OCc1cccnc1)CN2S(=O)(=O)N(C)C` | -0.4866 |
| `CN1N=C(C(=O)N2CCCCC2)S(=O)(=O)c2ccccc21` | -9.322 and -8.165 |
| `Cn1ccnc1CNC(=O)N1CCCC(Cc2nccn2C)C1` (stereo not given) | -4.735 |
| `CC(C)c1nc(C2CCCN(C(=O)c3ccc4c(c3)OCO4)C2)no1` (stereo not given) | -6.415 |
| `COc1cc(C(=O)N2CCC(c3n[nH]c(C4CC4)n3)CC2)ccc1C` | -6.444 |
| `CC(=O)N1CCN(S(=O)(=O)c2ccc(C)c(F)c2)CC1` | -2.593 |
| `O=C(c1ccn(-c2ccccc2Cl)n1)N1CCCSCC1` | -25.27 and -31.6 |
| `Cc1cccc(C(=O)NCC(O)c2ccc(F)cc2F)c1` (stereo not given) | -10.92 |
| `O=C1CC(c2cccs2)c2snc(C(=O)O)c2N1` (stereo not given) | -9.63 |
| `[H][C@@]12CC(=O)N(C)[C@@]1([H])CCN2C(=O)c1ccc[nH]1` | -6.268 |
| `CCCNC(=O)CC1OCCc2ccsc21` (stereo not given) | -16.91 |
| `CC(C)OCCN(C)C(C)c1cccc(S(N)(=O)=O)c1` (stereo not given) | 9.956 |
| `CCOCC1CN(S(=O)(=O)Cc2ccccc2)Cc2nccn2C1` (stereo not given) | 7.257 |
| `O=C1CSC(C(F)(F)F)c2c(O)nn(C3CCCC3)c2N1` (stereo not given) | -9.718 |
| `Cc1nccn1C1CCCN(C(=O)c2ccc(N(C)C)nn2)C1` (stereo not given) | 3.349 |
| `Cc1ncc(CN2CCCC(c3cc(C(N)=O)[nH]n3)C2)s1` (stereo not given) | 15.38 |
| `O=C(c1ccnnc1)N1CCc2onc(Cn3cccn3)c2C1` | 8.273 |
| `COc1c(CNCCNC(=O)c2ccccc2)c(C)nn1C.Cl` | 6.37 |
| `CNS(=O)(=O)c1csc(C(=O)NCc2sccc2C)c1` | -9.656 |
| `CN(C)C(=O)CC1CC2(CCN(c3ncccn3)CC2)c2ccccc21.O=C(O)C(F)(F)F` (stereo not given) | -13.3 |
| `[H][C@]12CCN(S(=O)(=O)c3ccc(F)cc3)[C@@]1([H])CC[C@@H](COCC)O2` | -4.579 |
| `Cl.Fc1ccc(-c2cnc(C3CCCN3)cn2)cc1` (stereo not given) | 2.809 |
| `COc1ccc(S(=O)(=O)N2CCOC(Cn3ccnc3)C2)cc1.Cc1ccc(S(=O)(=O)O)cc1` (stereo not given) | 8.205 |
| `Cc1ccc(Oc2ncccc2C(=O)N(C)CCCN(C)C)cc1` | -3.916 |
| `Cc1nc(CN2CCN(C(=O)NC(C)Cn3ccnc3)CC2)cs1` (stereo not given) | 7.448 |
| `Cc1cc(CCC2CN(CC3(O)CCCCC3)CCO2)ncn1` (stereo not given) | -5.62 |
| `Cc1nc(CN2CCN(C(=O)c3sccc3C3CC3)CC2)cs1` | -24.97 |
| `Cc1ccc(C(=O)N2CCC3(CC(N(C)c4ccncn4)C3)C2)cn1` (stereo not given) | 13.39 |
| `CC(C)(C)C(=O)NCCCc1nc2ccccc2[nH]1` | 3.622 |
| `[H][C@@]12CCN(c3ccc(C)nn3)C[C@]1(C(=O)NCC1CC1)CCO2` | 8.147 |
| `CC(C)n1nc2c(cc1=O)CN(c1ncnc3ccsc13)CC2` | 5.346 |
| `CN(C)c1cc(CNC(=O)c2ccc(=O)[nH]n2)ccn1` | -12.25 |
| `CCOC(=O)C1CCN(C(=O)c2cnn(-c3ccccc3F)c2N)CC1` | -17.57 |
| `CN(CC1CC1)c1ccc2ccc(C(=O)NCCc3ccccc3)cn12` | 2.527 |
| `Cc1noc(C)c1CN1Cc2cn(C)nc2C(COCC2CC2)C1.O=C(O)C(F)(F)F.O=C(O)C(F)(F)F` (stereo not given) | 8.418 |
| `CCc1nc(C2CCCN(C(=O)c3ccc4[nH]cnc4c3)C2)no1` (stereo not given) | 9.626 and -2.214 and -7.358 |
| `CCOC(=O)CSc1ccc(-c2nc(C)no2)cn1` | -0.4631 and 0.4035 |
| `COc1cc(CNC(=O)Nc2nnc(C(C)C)s2)ccn1` | -2.836 |
| `c1cnc(N2CCOCC3(CNCCO3)C2)nc1` (stereo not given) | 5.295 |
| `c1nnc(Nc2cncc(C3CCCN3CC3CC3)n2)s1` (stereo not given) | -4.156 |
| `O=C(Cc1cccnc1)N1CC(Cc2nccc3cc[nH]c23)C1` | -3.358 |
| `Cc1ccccc1CC(=O)N1CCCn2cncc2C1` | -22.62 |
| `O=C(CC1CC2(CCN(CC3CC3)CC2)Oc2ccccc21)NC1CC1.O=C(O)C(F)(F)F` (stereo not given) | -10.42 |
| `CC[C@H](C)[C@H](NC(=O)c1ccccc1-n1cnnn1)C(=O)OC` | -11.4 |
| `O=C(O)C(F)(F)F.[H][C@@]12CCN(C(=O)c3cnn(C)c3)[C@@]1([H])CCN2Cc1ccc(OC)cc1` | 3.657 |
| `Cc1nn(C)c(N(C)C)c1CNCc1ccnc(N2CCCCC2)c1` | -1.151 and 39.97 and -6.538 |
| `FC(F)(F)C1CN(Cc2cccc(OCc3ccccn3)c2)CCO1` (stereo not given) | -15.11 |

5 of the entries, repeated:

* Cc1ncc(CN2CCCC(c3cc(C(N)=O)[nH]n3)C2)s1 (stereo not given) : 15.38%
* Cc1cccc(C(=O)NCC(O)c2ccc(F)cc2F)c1 (stereo not given) : -10.92%
* Cc1nccn1C1CCCN(C(=O)c2ccc(N(C)C)nn2)C1 (stereo not given) : 3.349%
* Cc1ccc(Oc2ncccc2C(=O)N(C)CCCN(C)C)cc1 : -3.916%
* Cc1cc(C)n(-c2ccc(CNCc3cccc(C#N)c3)cn2)n1 : -0.3641%